About 3,700 (1.2%) of roughly 300,000 compounds were called active. Listed are the inconclusive results; actives and inactives stand elsewhere. The call rests on the fitted dose curve; tested in HEK293 cells.
Test: qHTS for Inhibitors of binding or entry into cells for Lassa Virus; further: nearly all actives have a fitted effect of over 50% in size
Details: Lassa virus pseudotype entry inhibition, cell reporter; activity change, negative = inhibition: at 37.9 µM (top of the series)
On the % scale 0 is the no-effect control and ±100 the full control effect; potency means the concentration at half of the fitted maximal effect.

SMILES | Potency | activity change, negative = inhibition
O=[N+]([O-])c1cc([N+](=O)[O-])c(OC2CCCCC2O)c([N+](=O)[O-])c1 (stereo not given) | inconclusive: 28.2 µM | 
O=[N+]([O-])c1cc([N+](=O)[O-])c(NCC2CCS(=O)(=O)C2)c([N+](=O)[O-])c1 (stereo not given) | inconclusive: 35.5 µM | 
Cn1c(=O)[nH]cc(N(CCCl)CCCl)c1=O | inconclusive: 12.6 µM | 
N#Cc1ccc(C(=O)NCC2(N3CCCCC3)CCCCC2)cc1 |  | inconclusive: -23.2%
O=C(OC1CN2CCC1CC2)C1c2ccccc2C=Cc2ccccc21 (stereo not given) | inconclusive: 16.4 µM | 
